From patent US5679645A, “Sialic acid powder and process for the preparation thereof” (Snow Brand Milk Products Co., Ltd., priority 1993, dated 1997)

Experiment: Reactivity: methyl esterification by Fisher method, reaction yield by HPLC
Type: physicochemical
Details: for Reaction yield after 2 hours / Reaction yield after 5 hours: methanol, Dowex 50, 25° C., HPLC

In the case of `CC(=O)N[C@H]1[C@H]([C@H](O)[C@H](O)CO)OC(O)(C(=O)O)C[C@@H]1O` (stereo partly shown) [Amorphous Powder 1-1, sialic acid], the “Reaction yield after 2 hours” value is reported as 100% and the “Reaction yield after 5 hours” value is reported as 100%.
For `CC(=O)N[C@H]1[C@H]([C@H](O)[C@H](O)CO)OC(O)(C(=O)O)C[C@@H]1O` (stereo partly shown) [Prisms 1-1, sialic acid], the “Reaction achieved after 24 hours” value (24 hours) was under 100%, the “Reaction yield after 2 hours” value was 57% and the “Reaction yield after 5 hours” value was 79%.
For `CC(=O)N[C@H]1[C@H]([C@H](O)[C@H](O)CO)OC(O)(C(=O)O)C[C@@H]1O` (stereo partly shown) [Needles 1-1, sialic acid], the “Reaction yield after 2 hours” value was 78% and the “Reaction yield after 5 hours” value was 100%.
